Measured values published in patent US8980586B2, “Compound and method for producing same” (The Ritsumeikan Trust, priority 2011, dated 2015).
Some of these results come from one statement about several compounds together. For at least one compound, name, drawing or mass did not settle the structure.

Tests used:
Saccharomyces cerevisiae = experiment: Antimicrobial activity against eukaryotic microorganisms, 96-well microplate (MIC); assay type: cell-based; details: Sabouraud medium, 30° C., 30 hours; no effect even at the stated amount
[1] = test system: green algae (Chlorella vulgaris); experiment: Activity test against algae; assay type: cell-based; details: 25° C., C medium, 96-microwell plate

| SMILES | growth inhibition effect against Saccharomyces cerevisiae (MIC) (Saccharomyces cerevisiae) [mg/L] | MIC with respect to green algae (Chlorella vulgaris) [1] [mg/L] |
| --- | --- | --- |
| CC1OC(OC2CCC(OC3C(O)CC(c4ccc5c(c4O)C(=O)C4=C(C5=O)C5(O)C(=O)CC(C)(OC6CCC(=O)C(C)O6)CC5(O)C=C4)OC3C)OC2C)C=CC1=O (centres unmarked) [Compound I0-D] | > 1000 |  |
| CC1OC(OC2C(O)CC(c3ccc4c(c3O)C(=O)C3=C(C4=O)C4(O)C(=O)CC(C)(OC5C=CC(=O)C(C)O5)CC4(O)C=C3)OC2C)C=CC1=O (centres unmarked) [Compound I-1] | > 1000 | > 100 |
| CC1OC(OC2CCC(OC3C(O)CC(c4ccc5c(c4O)C(=O)C4=C(C5=O)C5(O)C(=O)CC(C)(OC6C=CC(=O)C(C)O6)CC5(O)C=C4)OC3C)OC2C)C=CC1=O (centres unmarked) [Compound I-2] | > 1000 | > 100 |
